Assay results taken from the supplement of paper PMC10849652.
The list shows a part of the results.

Chains of the proteins cited; added tags and fusions are not shown. Lines headed by an entry give the natural chain unless they say otherwise; changes in a name come on top.
UniProt Q17R31: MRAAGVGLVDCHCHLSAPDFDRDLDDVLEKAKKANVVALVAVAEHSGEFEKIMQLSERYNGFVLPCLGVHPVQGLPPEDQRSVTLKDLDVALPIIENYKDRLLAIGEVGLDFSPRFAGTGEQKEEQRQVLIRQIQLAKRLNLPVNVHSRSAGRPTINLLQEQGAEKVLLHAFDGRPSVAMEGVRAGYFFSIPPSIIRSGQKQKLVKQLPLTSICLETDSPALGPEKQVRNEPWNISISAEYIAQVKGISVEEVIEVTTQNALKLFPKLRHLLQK
UniProt O60499: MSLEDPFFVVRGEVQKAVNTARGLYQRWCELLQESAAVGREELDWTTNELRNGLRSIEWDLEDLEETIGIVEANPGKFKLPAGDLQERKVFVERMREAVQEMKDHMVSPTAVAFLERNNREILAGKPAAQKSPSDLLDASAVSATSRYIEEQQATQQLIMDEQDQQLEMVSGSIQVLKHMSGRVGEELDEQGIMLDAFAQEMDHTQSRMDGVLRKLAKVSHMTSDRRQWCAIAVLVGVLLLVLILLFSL
UniProt O43760: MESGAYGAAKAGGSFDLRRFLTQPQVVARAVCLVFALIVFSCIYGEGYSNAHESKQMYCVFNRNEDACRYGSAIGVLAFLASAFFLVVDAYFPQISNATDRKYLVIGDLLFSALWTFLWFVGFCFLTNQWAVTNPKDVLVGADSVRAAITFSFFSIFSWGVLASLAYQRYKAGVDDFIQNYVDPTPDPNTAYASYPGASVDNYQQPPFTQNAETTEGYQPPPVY
UniProt Q5VSL9: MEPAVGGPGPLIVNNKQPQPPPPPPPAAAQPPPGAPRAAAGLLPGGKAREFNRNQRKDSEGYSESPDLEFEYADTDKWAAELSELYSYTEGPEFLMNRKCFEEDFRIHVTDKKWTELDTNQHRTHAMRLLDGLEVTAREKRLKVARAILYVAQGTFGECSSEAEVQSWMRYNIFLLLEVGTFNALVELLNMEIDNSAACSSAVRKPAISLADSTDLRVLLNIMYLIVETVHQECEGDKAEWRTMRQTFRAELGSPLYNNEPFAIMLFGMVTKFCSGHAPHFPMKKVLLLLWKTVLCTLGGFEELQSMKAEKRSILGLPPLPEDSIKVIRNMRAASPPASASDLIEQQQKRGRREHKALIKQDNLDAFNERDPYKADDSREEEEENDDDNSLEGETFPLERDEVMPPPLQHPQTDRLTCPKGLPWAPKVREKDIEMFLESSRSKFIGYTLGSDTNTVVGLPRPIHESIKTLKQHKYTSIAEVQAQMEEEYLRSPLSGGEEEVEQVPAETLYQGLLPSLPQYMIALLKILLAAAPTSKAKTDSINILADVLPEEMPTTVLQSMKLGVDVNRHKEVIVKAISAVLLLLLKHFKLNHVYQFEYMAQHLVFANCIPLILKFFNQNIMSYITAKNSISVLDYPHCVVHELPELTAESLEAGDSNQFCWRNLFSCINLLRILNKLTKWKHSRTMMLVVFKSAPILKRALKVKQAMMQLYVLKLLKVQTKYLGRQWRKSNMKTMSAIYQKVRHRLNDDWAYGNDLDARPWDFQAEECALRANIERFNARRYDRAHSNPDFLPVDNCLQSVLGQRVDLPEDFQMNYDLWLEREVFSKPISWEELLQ
UniProt Q12962, whole entry, looked up: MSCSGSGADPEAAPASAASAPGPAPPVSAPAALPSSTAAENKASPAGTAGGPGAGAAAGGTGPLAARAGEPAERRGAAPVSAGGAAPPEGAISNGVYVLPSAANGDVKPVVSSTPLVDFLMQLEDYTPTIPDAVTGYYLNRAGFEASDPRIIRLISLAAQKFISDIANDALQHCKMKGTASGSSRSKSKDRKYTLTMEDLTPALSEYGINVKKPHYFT
UniProt Q9Y2Z0: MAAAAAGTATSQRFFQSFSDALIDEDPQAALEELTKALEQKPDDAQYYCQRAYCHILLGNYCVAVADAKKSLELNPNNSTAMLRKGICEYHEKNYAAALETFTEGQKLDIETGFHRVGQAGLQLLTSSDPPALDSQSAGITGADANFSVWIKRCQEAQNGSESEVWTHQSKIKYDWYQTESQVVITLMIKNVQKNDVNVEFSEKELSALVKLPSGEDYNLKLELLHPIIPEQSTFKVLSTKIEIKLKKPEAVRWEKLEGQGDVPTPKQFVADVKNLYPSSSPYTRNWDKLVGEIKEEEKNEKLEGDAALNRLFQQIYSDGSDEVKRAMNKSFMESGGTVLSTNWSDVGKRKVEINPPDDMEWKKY
UniProt Q15750: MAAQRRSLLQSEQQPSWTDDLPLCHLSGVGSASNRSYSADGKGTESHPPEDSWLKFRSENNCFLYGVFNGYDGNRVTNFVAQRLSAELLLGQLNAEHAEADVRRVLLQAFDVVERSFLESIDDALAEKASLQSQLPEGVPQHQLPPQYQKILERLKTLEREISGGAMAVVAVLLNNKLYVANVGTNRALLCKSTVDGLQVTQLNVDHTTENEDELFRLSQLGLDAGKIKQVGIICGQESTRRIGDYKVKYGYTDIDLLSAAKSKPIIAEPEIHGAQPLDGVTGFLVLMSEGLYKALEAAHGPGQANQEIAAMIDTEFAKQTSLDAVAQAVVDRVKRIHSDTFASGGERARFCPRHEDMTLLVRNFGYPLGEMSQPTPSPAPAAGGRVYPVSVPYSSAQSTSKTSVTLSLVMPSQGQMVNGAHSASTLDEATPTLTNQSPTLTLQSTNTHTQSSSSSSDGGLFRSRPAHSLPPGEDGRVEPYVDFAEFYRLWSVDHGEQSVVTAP
UniProt Q8N300: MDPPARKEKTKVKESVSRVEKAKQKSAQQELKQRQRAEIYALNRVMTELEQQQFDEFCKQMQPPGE
UniProt O60506: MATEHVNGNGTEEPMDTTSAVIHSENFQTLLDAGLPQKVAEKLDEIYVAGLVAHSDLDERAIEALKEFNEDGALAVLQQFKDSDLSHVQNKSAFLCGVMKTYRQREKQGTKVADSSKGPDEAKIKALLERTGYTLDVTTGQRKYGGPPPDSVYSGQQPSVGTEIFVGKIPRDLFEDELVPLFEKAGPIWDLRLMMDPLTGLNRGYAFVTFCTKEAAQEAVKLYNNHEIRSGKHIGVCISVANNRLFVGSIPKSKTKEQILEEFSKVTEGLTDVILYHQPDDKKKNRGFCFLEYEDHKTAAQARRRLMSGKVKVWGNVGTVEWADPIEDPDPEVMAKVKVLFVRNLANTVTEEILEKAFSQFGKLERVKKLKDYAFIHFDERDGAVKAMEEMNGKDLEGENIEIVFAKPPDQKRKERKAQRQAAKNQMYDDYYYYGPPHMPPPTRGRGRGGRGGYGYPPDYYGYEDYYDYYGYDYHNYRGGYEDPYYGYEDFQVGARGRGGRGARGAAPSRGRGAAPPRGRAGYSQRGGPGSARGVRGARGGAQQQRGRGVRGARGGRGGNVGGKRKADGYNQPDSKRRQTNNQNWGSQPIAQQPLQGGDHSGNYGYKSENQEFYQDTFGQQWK
UniProt Q7Z422: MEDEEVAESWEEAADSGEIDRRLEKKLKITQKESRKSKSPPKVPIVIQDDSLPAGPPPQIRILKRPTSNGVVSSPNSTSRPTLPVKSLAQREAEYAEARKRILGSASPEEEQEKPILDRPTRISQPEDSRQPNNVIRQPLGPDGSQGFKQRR
UniProt A2RTX5: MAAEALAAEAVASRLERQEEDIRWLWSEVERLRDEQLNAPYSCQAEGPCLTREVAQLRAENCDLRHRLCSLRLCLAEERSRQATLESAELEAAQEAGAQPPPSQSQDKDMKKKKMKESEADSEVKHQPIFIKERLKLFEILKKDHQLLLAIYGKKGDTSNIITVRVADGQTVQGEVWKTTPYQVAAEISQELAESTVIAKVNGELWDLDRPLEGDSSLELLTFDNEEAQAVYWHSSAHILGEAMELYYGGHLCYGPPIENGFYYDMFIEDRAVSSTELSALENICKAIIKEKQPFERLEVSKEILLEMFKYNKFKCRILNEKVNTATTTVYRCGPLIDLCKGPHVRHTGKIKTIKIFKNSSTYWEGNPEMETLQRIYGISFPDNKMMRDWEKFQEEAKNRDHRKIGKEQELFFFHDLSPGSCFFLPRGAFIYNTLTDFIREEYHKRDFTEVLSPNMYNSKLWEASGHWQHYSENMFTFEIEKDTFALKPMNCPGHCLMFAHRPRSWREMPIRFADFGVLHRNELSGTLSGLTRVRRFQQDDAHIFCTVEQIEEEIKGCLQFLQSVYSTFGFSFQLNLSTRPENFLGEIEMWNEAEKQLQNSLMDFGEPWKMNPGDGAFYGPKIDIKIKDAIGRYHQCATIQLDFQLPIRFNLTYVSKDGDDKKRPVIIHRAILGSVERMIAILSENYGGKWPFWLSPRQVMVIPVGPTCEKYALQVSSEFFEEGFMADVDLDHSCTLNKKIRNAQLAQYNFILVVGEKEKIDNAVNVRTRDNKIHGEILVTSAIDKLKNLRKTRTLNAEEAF
UniProt Q86TM6, whole entry, looked up: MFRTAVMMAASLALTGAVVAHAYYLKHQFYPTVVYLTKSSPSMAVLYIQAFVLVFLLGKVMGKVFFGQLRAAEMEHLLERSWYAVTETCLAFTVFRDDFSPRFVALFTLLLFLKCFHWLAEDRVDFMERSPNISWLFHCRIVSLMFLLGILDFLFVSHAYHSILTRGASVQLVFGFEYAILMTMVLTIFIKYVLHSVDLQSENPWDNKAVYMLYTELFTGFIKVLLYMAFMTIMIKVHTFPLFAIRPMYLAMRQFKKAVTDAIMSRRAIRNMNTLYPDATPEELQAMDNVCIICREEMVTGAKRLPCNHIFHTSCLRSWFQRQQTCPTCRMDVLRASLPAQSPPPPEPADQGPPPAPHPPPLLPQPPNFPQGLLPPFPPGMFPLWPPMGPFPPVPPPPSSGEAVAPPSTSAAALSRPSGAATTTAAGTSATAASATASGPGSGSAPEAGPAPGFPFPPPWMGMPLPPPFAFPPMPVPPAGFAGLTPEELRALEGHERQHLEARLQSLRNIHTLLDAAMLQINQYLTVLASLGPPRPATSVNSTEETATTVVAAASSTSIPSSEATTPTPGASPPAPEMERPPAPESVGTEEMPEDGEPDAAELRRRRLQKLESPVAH
UniProt O14662: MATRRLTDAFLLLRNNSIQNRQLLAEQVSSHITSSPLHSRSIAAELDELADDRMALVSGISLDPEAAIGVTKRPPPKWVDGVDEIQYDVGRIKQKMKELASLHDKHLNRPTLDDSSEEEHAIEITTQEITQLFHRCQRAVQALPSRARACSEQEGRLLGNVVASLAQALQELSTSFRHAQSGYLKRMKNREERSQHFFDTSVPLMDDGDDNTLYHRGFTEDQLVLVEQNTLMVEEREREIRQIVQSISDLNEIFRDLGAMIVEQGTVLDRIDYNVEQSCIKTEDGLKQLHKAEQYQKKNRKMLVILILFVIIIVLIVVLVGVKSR
UniProt Q9ULQ0: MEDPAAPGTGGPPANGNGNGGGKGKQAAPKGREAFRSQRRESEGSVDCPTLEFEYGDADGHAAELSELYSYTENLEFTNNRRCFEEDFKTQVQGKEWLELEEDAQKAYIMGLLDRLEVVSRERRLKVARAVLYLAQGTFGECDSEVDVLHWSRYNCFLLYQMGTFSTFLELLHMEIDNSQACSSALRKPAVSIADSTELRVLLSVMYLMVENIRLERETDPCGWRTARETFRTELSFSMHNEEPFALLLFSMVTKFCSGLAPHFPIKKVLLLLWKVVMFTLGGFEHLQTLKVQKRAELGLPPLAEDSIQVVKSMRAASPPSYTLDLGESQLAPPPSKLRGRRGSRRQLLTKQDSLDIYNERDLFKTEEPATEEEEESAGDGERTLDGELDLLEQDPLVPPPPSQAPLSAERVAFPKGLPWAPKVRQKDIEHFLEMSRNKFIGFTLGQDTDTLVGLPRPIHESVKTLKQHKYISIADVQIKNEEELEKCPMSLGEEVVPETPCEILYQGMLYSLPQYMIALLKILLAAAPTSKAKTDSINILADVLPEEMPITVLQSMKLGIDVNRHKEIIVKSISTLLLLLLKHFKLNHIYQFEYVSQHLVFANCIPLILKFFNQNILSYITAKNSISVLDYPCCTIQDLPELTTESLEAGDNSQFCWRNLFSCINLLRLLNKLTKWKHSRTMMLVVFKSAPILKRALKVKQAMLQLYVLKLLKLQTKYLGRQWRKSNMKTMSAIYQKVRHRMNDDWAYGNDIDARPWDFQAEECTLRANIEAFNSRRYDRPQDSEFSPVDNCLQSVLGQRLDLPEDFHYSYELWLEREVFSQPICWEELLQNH
UniProt Q7RTN6: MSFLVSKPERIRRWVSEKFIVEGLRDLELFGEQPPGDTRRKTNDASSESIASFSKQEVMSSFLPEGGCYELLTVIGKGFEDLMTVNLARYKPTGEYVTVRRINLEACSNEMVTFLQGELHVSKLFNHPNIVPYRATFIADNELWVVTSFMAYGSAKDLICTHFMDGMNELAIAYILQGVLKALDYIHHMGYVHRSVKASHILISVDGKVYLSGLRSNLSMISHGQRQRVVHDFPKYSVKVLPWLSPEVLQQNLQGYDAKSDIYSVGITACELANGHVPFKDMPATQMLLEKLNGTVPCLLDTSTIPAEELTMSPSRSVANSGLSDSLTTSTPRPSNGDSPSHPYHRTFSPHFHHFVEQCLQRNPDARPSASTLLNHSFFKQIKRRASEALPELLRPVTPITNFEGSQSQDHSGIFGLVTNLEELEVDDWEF

compound: O=C(O)c1ccc2c(c1)nc(Nc1cccc(Cl)c1)c1ccncc12 [silmitasertib]; assay: log2 fold change, soluble protein after heating vs DMSO (PISA); higher = thermal stabilisation; K562 cells, 10 uM, 30 min; active = over 0.2 and 3.5 SD of the protein, either way, in both replicates (recomputed)
Summary of the method: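 For each measurement, 10 μM compound was applied for 30 min to K562 cells at 2×10^6 cells/mL. Aliquots were heated for 3 min across 48°C-58°C, pooled, and extracted in PBS with 0.5% NP-40 at 4°C; the supernatant after 21,000xg for 90 min was soluble protein. This was quantified by TMTpro 16plex LC-MS/MS with channel sums equalised, and thermal stability was reported relative to control samples from duplicates, on a log2 fold-change scale.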

log2 fold change, inactive:
TATDN3 isoform 3 (UniProt Q17R31) 0.004
SYNJ1 (UniProt O43426) 0.011
SYNJ2BP-COX16, A0A087WYV9 0.04
STX10 (UniProt O60499) 0.089
SYNGR2 (UniProt O43760) 0.026
SYNRG (UniProt Q9UMZ2) 0.101
SUCLG2 (UniProt Q96I99) -0.031
TAF2 (UniProt Q6P1X5) 0.071
STT3A (UniProt P46977) 0.027
SUCO (UniProt Q9UBS9) -0.22
STT3B (UniProt Q8TCJ2) 0.124
TAGLN2 isoform 2 (UniProt P37802) -0.036
STRN4 isoform 3 (UniProt Q9NRL3) 0
STRIP1 (UniProt Q5VSL9) -0.001
TAF10 (UniProt Q12962) 0.003
SUPV3L1 (UniProt Q8IYB8) 0.03
TACO1 (UniProt Q9BSH4) -0.011
SYAP1 (UniProt Q96A49) 0.025
TARDBP (UniProt Q13148) 0.12
STXBP1 (UniProt P61764) 0.016
TAPT1 (UniProt Q6NXT6) 0.024
TACC3 (UniProt Q9Y6A5) 0.028
STX5 (UniProt Q13190) 0.025
STMN1 (UniProt P16949) -0.078
TAF7 (UniProt Q15545) -0.037
SUGT1 (UniProt Q9Y2Z0) 0.017
TAB1 (UniProt Q15750) 0.039
SVBP (UniProt Q8N300) 0.001
SYNCRIP (UniProt O60506) 0.107
SZRD1 (UniProt Q7Z422) 0.03
TARSL2 (UniProt A2RTX5) -0.026
SYVN1 (UniProt Q86TM6) 0.002
TAF8 isoform 2 (UniProt Q7Z7C8) 0.049
STX16 isoform 2 (UniProt O14662) 0.027
TAF15 (UniProt Q92804) 0.069
TANGO2 isoform 4 (UniProt Q6ICL3) -0.027
STX12 (UniProt Q86Y82) -0.029
STRIP2 (UniProt Q9ULQ0) 0.122
STRADA (UniProt Q7RTN6) -0.004

Retrieved one by one from above (2):
log2 fold change, inactive:
STRN4 isoform 3 (UniProt Q9NRL3) 0
TARSL2 (UniProt A2RTX5) -0.026
